Measured values from PubChem BioAssay AID493014 (National Center for Advancing Translational Sciences (NCATS), 2011).
In all, about 340,000 compounds went through this assay and about 170 (0.05%) were called active. This list was built around the results that the source calls inconclusive (neither active nor inactive); the mix of calls is not that of the screen. Calls follow the shape of the dose curve; as a rule, active = well fitted inhibition curve with a large enough effect in the signal ratio, with a control signal flat (not every such curve was filed as active); inconclusive = small, poorly fitted or top-dose-only effect, or effect the other way, or a change in a side signal; inactive = flat fitted curve, though single readings scatter; the % refers to the signal ratio. Where the call is inconclusive, the potency comes from a doubtful curve fit.
Potency is read from the fitted curve at half-maximal effect.

Assay: qHTS Assay to Find Inhibitors of Chronic Active B-Cell Receptor Signaling;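 as to activity change, negative = inhibition: plate controls were basal doxycycline-induced cells for no effect and cells given 10 µM MG132 for full effect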
Conditions: ABC-DLBCL IkBa-CBG/CBR reporter, luminescence ratio (green luciferase fused to IkBa over red control in TMD8 lymphoma cells), 4 h; activity change, negative = inhibition: at 46.1 µM (top of the series)
Procedure, shortened: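 Compounds up to 46 uM were incubated four hours with TMD8 cells whose green CBG68 luciferase is fused to IkappaBalpha; red CBR luminescence normalised the signal, and concentration-effect curves were fitted to fusion, red and ratio data.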
With `CCc1cc(C(=O)O)c(NC(=O)/C=C/c2ccc(OC)cc2)s1` the Potency was inconclusive: 0.251 µM [rising, partial curve, poor fit].
For `CCOC(=O)N1CCN(C(c2ccccc2)c2sc3nc(C)nn3c2O)CC1` (stereo not drawn), the activity change, negative = inhibition was inconclusive: 14.8%.
With `CCc1nn(-c2ccccc2)c2c1-c1cc(OC)c(OC)cc1C1(N2)C(=O)Nc2ccccc21` (stereo not drawn) the activity change, negative = inhibition was inconclusive: 13%.
For `Cc1ccsc1-c1nc(CSCC(=O)NCc2ccc3c(c2)OCO3)c(C)o1`, the activity change, negative = inhibition was inconclusive: -10.5%.
For `COc1ccc(/C=C/C(=O)c2ccccc2)c(OC)c1`, the Potency was inconclusive: 35.5 µM [rising, single point].
In the case of `COc1ccc(OCCOCCN2CCOCC2)cc1`, the activity change, negative = inhibition was inconclusive: 13.1%.
In the case of `N#CCC(=O)N/N=C\c1cc(Br)ccc1OC/C=C/c1ccccc1`, the activity change, negative = inhibition was inconclusive: 6.65%.
For `CCC1CCCCN1C(=O)c1ccc([N+](=O)[O-])o1` (stereo not drawn), the “activity change, negative = inhibition” value was inactive: 3.82%.
For `O=C(C[n+]1ccc2ccccc2c1)c1ccc(NC(=O)c2ccccc2)cc1`, the activity change, negative = inhibition was inconclusive: -6.79%.
With `Cc1ccc(S(=O)(=O)Nc2cccc3c2O[C@H](CN(C)Cc2ccc(-c4ccccc4)cc2)[C@@H](C)CN([C@H](C)CO)C3=O)cc1` the activity change, negative = inhibition was inconclusive: 4.78%.
For `CCOc1ccc(NC(=O)c2ccc(CNc3c(NC4CCCCC4)c(=O)c3=O)cc2)cc1`, the Potency was inconclusive: 32.6 µM [falling, partial curve, poor fit].
For `Cc1cc(C)c(C)c(S(=O)(=O)N2C(=S)NC(=O)C2CC(C)C)c1C` (stereo not drawn), the activity change, negative = inhibition was inconclusive: 3.67%.
In the case of `O=C(NC(=S)N1CCN(C/C=C/c2ccccc2)CC1)c1c(F)cccc1F`, the Potency was inconclusive: 0.13 µM [falling, full curve, poor fit].
In the case of `O=[N+]([O-])/C(C(Cl)=C(Cl)Cl)=C(\Nc1ccc(F)cc1)n1cncn1`, the Potency was inconclusive: 16.4 µM [falling, single point].
With `O=Cc1c(NCCN2CCOCC2)c2ccccc2[nH]c1=O` the activity change, negative = inhibition was inconclusive: -16.8%.
For `Cc1ccc(C(=O)NCCN2C3=NC[C@H](C(C)C)N3C[C@H]2Cc2ccc(O)cc2)cc1Br`, the activity change, negative = inhibition was inconclusive: -2.21%.
With `O=c1cc(-c2c(F)c(F)c(F)c(F)c2F)oc2ccccc12` the Potency was inconclusive: 9.2 µM [rising, partial curve].
With `CCCN1C(=O)C(=O)c2cc(Cl)ccc21` the Potency was inconclusive: 16.4 µM [falling, single point].
In the case of `CC(C)c1ccc(CN(C)C(=O)c2ccc(S(=O)(=O)NCc3ccco3)cc2)cc1`, the activity change, negative = inhibition was inconclusive: 1.33%.
With `Cc1cccc(NC(=O)C(=O)NCC2CCCN2S(=O)(=O)c2cccs2)c1C` (stereo not drawn) the Potency was inconclusive: 20.6 µM [falling, single point].
In the case of `Cc1ccc(S(=O)(=O)N2CCN(c3nc(C)nc4sc5c(c34)CCC(C)C5)CC2)cc1` (stereo not drawn), the “activity change, negative = inhibition” value was inactive: 1.07%.
In the case of `Cc1cc(NC(=O)c2cc(-c3ccccc3)on2)n(-c2ccccc2)n1`, the Potency was inconclusive: 5.17 µM [falling, partial curve, poor fit].
With `COc1cc(-c2nc3ccccc3s2)ccc1O` the Potency was inconclusive: 1.16 µM [rising, full curve, poor fit].
With `O=S(=O)(Nc1cccc2ccccc12)c1cccs1` the activity change, negative = inhibition was inconclusive: -0.53%.
For `O=C(Nc1cccc(F)c1)c1ccc(CSc2ccccc2)o1`, the activity change, negative = inhibition was inconclusive: -11%.
In the case of `COc1ccc2c(c1)C(=O)[C@H](O)[C@@H](c1ccc(OC)c(Br)c1)O2`, the activity change, negative = inhibition was inconclusive: -16.7%.
In the case of `Cn1cccc1/C=N/NC(=O)c1cc2ccccc2cc1O`, the Potency was inconclusive: 2.24 µM [falling, full curve, poor fit].
With `COc1ccc(CC(=O)Nc2ccc(-c3ccc4nnc(C)n4n3)cc2)cc1OC` the activity change, negative = inhibition was inconclusive: -15.9%.
For `Cc1cc(C)cc(N(C(=O)c2csnn2)C(C(=O)NC2CCCC2)c2cccnc2)c1` (stereo not drawn), the “activity change, negative = inhibition” value was inactive: -2.63%.
With `COc1ccc(-c2nc3ccccc3s2)cc1NC(=O)c1cccc(F)c1` the “activity change, negative = inhibition” value was inactive: -0.105%.
For `Cc1ccsc1C(=O)OCc1cc(=O)n2ccsc2n1`, the Potency was inconclusive: 4.61 µM [falling, partial curve].
With `CC(NC(=S)Nc1ccccc1Cl)C(c1ccccc1)N1CCOCC1` (stereo not drawn) the activity change, negative = inhibition was inconclusive: -7.42%.
For `Cn1c(-c2ccc(F)c(F)c2)cc2onc(-c3ccccc3)c2c1=O`, the Potency was inconclusive: 0.082 µM [rising, full curve].
With `Cc1nc(N=C(N)N)nc2ccccc12` the activity change, negative = inhibition was inconclusive: 0.473%.
With `CC(=O)Nc1nc(NC(=O)/C=C/c2ccccc2)n(-c2ccccc2)n1` the “activity change, negative = inhibition” value was inactive: -0.203%.
With `CSCCCNC(=S)Nc1ccc(N2CCOCC2)cc1` the activity change, negative = inhibition was inconclusive: 2.07%.
With `CCCCCCNC(=O)CC(c1ccccc1)c1cc(Br)ccc1O` (stereo not drawn) the Potency was inconclusive: 29.1 µM [rising, single point].
With `COC(=O)C1=C(N)c2c(F)cccc2C1(C#N)c1ccc(F)cc1` (stereo not drawn) the activity change, negative = inhibition was inconclusive: -13%.
For `CC(C(=O)NC1(C#N)CCCCC1)N(C)CC(=O)Nc1ccc(Cl)c(Cl)c1` (stereo not drawn), the activity change, negative = inhibition was inconclusive: -9.72%.
With `CCCn1cnc2cc(NCc3cccs3)ccc21` the Potency was inconclusive: 3.55 µM [falling, partial curve].
In the case of `O=[N+]([O-])c1cc(S(=O)(=O)NCCc2ccccn2)ccc1Cl`, the activity change, negative = inhibition was inconclusive: -0.327%.
In the case of `Cc1ccc(C2=NNC(C(O)C(O)C(O)C(O)CO)S2)cc1` (stereo not drawn), the activity change, negative = inhibition was inconclusive: 23.5%.
In the case of `Cc1cc(C)c2oc(C(=O)N3CCN(Cc4ccccc4)CC3)cc(=O)c2c1`, the activity change, negative = inhibition was inconclusive: -14.3%.
With `N#Cc1cc(C(=O)c2ccccc2O)cn(-c2nccs2)c1=O` the activity change, negative = inhibition was inconclusive: -0.0142%.
With `COc1ccc(CNC(=O)N[C@H](C(=O)O)C(C)C)cc1OC` the activity change, negative = inhibition was inconclusive: -7.73%.
In the case of `O/C(=C\c1nc2ccccc2nc1/C=C(\O)c1ccccc1)c1ccccc1`, the Potency was inconclusive: 5.62 µM [rising, single point].
In the case of `O=C(Nc1ccc(N2C(=O)C3C4C=CC(C4)C3C2=O)cc1)Nc1nnc(C(F)(F)F)s1` (stereo not drawn), the Potency was inconclusive: 2.31 µM [rising, full curve].
With `CN(C)c1ccc(-n2cccc2/C=C/[N+](=O)[O-])cc1` the Potency was inconclusive: 3.98 µM [falling, partial curve, poor fit].
